PubChem BioAssay AID1259254 – NCATS | 2017
Assay: 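Finding genes that stop cells copying their DNA twice in one cycle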 (primary screen). Cell system: human HCT116 colorectal cancer cells. Knock-down reagent: single siRNA against human genes. Timing: 3 days. Measurement: 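Nuclei stained with Hoechst and imaged; cell-cycle phase assigned by DNA content; G2 share scaled per plate, non-targeting siRNA 0%, GMNN siRNA 100%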. Scale: G2 robust z-score: higher = more G2 cells, more excess DNA replication. Call rule: 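Active siRNAs have a G2 robust z of 5 or more median absolute deviations over the median, which in these data means about 38% or higher of GMNN control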.
Shown is one part, drawn at random, of about 59,000 deposited reagents. Over the whole deposit, about 1,550 (2.6%) got an active call. 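G2 share is only a proxy for re-replication; each gene was hit by three separate siRNAs, and active genes were retested.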 A number with no mark means an inactive call. Reagents against one gene are numbered here. Further read-outs or replicates are left out here. The record does not give: the amount of reagent.

G2 robust z-score, by gene symbol and reagent
MBLAC2 (metallo-beta-lactamase domain containing 2): #1 1.15; #2 1.12; #3 1.69
LSAMP (limbic system associated membrane protein): #1 1.84; #2 -1.47; #3 0.354
KCTD13 (potassium channel tetramerization domain containing 13): #1 -1.35; #2 2.55; #3 3.6
PICK1 (protein interacting with PRKCA 1): #1 1.35; #2 0.416; #3 -0.474
GAPDH (glyceraldehyde-3-phosphate dehydrogenase): #1 5.29 (active); #2 -1.01; #3 0.449
TEDC1 (tubulin epsilon and delta complex 1): #1 -1.01; #2 1.94; #3 0.464
DNAJC14 (DnaJ heat shock protein family (Hsp40) member C14): #1 -0.0731; #2 -0.496; #3 1.89
PPP1R2 (protein phosphatase 1 regulatory inhibitor subunit 2): #1 0.17; #2 -0.374; #3 -0.268
PRR14 (proline rich 14): #1 -1.05; #2 1.43; #3 1.38
ARSH (arylsulfatase family member H): #1 1.39; #2 -1.19; #3 -0.0843
INTS4 (integrator complex subunit 4): #1 -0.11; #2 0.45; #3 -0.383
H3C1 (H3 clustered histone 1): #1 0.0768; #2 0.87; #3 0.908
KATNA1 (katanin catalytic subunit A1): #1 2.61; #2 -0.602; #3 -0.767
KLF8 (KLF transcription factor 8): #1 -0.282; #2 -1.07; #3 0.579
SLC25A43: #1 -0.000247; #2 2.95; #3 1.76
ZNF175 (zinc finger protein 175): #1 -1.14; #2 -0.224; #3 0.241
LDHB (lactate dehydrogenase B): #1 1.31; #2 -1.61; #3 -0.384
TTK (TTK protein kinase): #1 10.5 (active); #2 2.2; #3 4.09
FAM199X (family with sequence similarity 199, X-linked): #1 0.246; #2 0.496; #3 0.636
RAB43 (RAB43, member RAS oncogene family): #1 2.07; #2 0.291; #3 0.043
IFT22 (intraflagellar transport 22): #1 1.21; #2 -0.869; #3 -0.605
XPOT (exportin for tRNA): #1 3.16; #2 -0.828; #3 -0.136
ITGAM (integrin subunit alpha M): #1 4.93; #2 0.675; #3 0.282
